Compound in this test: CN[C@@H]1C[C@H]2O[C@@](C)([C@@H]1OC)n1c3ccccc3c3c4c(c5c6ccccc6n2c5c31)C(=O)NC4 [staurosporine]
Kind of test: log2 fold change of tryptic peptide abundance, ligand vs vehicle (limited proteolysis) (log2 ratio); higher = more trypsin-susceptible (destabilized). The note with it: ligand concentration: 20 uM; sample: K562 cleared lysate; digestion: 4 min, 22 C (HT-PELSA RT4min, Orbitrap Astral).

Protein sequences, listed by entry. Tags and fused reporters are not part of them. Lines headed by an entry give the natural chain unless they say otherwise; changes in a name come on top.
UniProt P57768: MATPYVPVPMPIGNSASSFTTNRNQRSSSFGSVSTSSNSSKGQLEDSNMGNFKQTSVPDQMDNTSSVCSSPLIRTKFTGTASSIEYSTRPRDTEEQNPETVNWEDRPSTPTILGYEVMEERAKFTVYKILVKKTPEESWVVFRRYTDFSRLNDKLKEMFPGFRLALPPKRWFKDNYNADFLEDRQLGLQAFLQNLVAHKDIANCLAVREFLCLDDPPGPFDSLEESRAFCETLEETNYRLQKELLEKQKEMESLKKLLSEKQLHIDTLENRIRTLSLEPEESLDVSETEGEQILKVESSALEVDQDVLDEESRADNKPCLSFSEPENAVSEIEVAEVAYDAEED
UniProt P82970: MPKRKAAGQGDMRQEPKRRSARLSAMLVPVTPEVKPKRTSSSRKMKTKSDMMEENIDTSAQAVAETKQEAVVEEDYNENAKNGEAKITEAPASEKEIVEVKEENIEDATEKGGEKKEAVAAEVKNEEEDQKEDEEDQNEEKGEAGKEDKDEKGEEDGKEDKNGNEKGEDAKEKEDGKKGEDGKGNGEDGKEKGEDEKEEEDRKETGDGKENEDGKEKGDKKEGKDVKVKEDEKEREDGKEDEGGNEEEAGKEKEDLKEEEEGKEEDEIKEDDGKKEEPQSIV
UniProt P55347: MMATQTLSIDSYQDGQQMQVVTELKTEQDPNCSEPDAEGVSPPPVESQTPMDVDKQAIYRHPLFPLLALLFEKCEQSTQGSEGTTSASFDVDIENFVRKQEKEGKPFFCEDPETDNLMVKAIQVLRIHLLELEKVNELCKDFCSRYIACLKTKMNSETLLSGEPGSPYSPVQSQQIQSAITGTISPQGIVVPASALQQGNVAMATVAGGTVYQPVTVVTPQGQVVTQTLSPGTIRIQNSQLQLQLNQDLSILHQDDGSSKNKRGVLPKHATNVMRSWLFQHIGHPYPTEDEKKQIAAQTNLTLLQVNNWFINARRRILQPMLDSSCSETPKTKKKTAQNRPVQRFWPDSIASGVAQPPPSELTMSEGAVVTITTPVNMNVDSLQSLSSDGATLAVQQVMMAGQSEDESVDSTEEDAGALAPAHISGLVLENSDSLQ
UniProt P63241: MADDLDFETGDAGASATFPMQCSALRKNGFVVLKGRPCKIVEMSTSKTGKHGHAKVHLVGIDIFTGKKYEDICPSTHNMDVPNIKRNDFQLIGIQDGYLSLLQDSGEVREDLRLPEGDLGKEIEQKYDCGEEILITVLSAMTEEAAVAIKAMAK
UniProt P56282: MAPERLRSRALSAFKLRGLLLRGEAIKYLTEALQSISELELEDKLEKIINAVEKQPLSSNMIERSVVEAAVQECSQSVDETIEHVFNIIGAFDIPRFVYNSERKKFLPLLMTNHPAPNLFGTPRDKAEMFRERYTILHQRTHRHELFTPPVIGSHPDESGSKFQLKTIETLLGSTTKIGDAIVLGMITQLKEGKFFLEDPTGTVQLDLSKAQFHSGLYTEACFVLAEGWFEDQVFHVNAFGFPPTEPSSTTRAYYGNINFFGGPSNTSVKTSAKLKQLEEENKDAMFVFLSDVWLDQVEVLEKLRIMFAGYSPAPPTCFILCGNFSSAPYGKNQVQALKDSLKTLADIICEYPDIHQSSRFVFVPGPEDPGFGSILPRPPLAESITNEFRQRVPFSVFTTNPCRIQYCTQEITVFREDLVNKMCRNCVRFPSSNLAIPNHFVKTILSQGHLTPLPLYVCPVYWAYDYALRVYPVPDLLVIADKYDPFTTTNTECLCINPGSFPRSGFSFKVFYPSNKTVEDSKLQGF
UniProt P57060: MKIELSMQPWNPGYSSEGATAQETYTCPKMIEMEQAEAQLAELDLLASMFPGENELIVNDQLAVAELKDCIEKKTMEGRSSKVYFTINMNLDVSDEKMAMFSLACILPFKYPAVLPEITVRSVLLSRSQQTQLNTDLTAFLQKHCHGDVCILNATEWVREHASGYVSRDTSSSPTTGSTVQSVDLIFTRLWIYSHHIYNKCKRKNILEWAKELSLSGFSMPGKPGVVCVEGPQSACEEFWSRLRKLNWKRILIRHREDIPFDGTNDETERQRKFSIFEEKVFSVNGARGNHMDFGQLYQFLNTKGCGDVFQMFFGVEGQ
UniProt P60468, whole entry: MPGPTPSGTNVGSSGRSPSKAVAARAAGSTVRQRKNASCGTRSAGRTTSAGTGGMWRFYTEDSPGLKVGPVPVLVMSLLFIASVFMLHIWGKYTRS
UniProt P62140, whole entry: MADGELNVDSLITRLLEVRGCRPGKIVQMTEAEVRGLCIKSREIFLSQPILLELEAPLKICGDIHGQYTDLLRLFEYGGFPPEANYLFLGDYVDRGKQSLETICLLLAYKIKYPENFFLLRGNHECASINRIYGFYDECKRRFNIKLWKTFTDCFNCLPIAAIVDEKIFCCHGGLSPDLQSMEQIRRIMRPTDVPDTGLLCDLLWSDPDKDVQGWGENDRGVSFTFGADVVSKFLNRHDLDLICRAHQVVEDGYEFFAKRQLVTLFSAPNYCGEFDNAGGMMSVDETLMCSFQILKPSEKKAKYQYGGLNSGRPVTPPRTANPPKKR
UniProt P61024, whole entry: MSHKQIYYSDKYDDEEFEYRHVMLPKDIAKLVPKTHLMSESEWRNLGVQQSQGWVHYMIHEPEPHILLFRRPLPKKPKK
UniProt P63208, whole entry: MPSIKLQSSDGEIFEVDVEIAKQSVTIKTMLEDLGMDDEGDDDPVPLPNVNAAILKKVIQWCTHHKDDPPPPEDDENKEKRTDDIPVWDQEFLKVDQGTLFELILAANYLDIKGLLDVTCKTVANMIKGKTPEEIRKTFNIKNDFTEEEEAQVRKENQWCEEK
UniProt P61088: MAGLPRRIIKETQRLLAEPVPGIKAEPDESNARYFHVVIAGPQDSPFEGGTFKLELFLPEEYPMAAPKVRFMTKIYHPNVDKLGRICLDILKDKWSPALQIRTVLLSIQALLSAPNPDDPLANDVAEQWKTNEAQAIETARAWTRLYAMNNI
UniProt P58166: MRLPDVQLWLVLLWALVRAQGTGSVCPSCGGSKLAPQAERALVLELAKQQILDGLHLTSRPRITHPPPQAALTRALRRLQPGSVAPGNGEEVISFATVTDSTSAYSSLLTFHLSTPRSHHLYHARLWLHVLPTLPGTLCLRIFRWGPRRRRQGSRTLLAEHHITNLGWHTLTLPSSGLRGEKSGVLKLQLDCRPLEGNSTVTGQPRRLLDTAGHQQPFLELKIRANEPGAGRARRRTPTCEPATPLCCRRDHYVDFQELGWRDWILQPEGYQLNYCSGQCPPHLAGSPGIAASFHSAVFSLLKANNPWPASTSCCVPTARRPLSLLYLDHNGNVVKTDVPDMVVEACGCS
UniProt P61129: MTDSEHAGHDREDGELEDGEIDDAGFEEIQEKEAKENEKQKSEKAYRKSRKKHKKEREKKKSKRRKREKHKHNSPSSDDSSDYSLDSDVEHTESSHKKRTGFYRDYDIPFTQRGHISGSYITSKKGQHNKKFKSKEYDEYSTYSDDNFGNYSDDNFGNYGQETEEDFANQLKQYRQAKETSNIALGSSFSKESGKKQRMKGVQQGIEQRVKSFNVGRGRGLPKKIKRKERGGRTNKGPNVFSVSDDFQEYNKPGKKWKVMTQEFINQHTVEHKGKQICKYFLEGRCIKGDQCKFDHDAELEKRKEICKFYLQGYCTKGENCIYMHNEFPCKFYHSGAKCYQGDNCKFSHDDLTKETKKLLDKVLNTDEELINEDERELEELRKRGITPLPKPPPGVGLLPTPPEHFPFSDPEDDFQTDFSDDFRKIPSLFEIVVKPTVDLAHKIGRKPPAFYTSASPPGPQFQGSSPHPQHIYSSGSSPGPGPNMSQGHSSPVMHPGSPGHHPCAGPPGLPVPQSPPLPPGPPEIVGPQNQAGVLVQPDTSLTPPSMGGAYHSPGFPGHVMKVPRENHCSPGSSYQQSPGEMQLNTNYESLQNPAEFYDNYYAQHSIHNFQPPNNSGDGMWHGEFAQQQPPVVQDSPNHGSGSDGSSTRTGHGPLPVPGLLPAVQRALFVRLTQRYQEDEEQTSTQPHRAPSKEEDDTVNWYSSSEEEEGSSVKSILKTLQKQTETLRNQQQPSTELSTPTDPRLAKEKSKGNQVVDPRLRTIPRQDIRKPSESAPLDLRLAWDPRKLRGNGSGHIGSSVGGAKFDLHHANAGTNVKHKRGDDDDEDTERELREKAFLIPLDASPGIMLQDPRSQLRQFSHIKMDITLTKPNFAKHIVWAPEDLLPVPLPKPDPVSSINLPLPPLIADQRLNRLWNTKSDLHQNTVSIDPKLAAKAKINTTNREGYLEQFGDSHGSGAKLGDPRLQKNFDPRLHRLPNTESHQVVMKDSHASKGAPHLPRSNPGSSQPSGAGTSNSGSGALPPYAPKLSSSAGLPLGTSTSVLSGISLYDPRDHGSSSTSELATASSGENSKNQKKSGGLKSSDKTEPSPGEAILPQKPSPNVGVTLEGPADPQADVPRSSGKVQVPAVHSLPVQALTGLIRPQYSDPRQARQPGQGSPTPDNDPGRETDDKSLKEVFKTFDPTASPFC
UniProt P56556, whole entry: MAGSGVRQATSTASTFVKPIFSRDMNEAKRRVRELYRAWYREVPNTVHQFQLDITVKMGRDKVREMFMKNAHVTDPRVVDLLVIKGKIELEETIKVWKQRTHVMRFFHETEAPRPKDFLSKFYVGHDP
UniProt P56211: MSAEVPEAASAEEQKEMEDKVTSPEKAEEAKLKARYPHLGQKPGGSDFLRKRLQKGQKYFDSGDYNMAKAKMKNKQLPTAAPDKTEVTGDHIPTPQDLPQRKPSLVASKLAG
UniProt P61204: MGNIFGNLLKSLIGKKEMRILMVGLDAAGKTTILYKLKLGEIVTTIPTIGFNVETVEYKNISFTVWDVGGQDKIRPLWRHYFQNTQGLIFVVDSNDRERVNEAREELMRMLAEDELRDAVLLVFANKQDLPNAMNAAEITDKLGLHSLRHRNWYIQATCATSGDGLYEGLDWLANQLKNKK
UniProt P62330: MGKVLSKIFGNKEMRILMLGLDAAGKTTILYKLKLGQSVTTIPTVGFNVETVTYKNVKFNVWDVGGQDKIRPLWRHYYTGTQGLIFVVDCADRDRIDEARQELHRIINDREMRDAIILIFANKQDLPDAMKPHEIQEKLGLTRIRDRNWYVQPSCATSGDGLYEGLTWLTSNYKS
UniProt P60510: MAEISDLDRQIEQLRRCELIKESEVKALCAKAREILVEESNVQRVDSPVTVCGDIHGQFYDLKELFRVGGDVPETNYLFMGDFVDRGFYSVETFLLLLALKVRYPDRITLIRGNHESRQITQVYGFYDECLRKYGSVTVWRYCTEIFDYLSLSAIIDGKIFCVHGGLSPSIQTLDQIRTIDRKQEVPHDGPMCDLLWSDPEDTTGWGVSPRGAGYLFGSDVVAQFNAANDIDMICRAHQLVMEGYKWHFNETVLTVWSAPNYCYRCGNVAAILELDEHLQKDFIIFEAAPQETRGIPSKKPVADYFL
UniProt P82094: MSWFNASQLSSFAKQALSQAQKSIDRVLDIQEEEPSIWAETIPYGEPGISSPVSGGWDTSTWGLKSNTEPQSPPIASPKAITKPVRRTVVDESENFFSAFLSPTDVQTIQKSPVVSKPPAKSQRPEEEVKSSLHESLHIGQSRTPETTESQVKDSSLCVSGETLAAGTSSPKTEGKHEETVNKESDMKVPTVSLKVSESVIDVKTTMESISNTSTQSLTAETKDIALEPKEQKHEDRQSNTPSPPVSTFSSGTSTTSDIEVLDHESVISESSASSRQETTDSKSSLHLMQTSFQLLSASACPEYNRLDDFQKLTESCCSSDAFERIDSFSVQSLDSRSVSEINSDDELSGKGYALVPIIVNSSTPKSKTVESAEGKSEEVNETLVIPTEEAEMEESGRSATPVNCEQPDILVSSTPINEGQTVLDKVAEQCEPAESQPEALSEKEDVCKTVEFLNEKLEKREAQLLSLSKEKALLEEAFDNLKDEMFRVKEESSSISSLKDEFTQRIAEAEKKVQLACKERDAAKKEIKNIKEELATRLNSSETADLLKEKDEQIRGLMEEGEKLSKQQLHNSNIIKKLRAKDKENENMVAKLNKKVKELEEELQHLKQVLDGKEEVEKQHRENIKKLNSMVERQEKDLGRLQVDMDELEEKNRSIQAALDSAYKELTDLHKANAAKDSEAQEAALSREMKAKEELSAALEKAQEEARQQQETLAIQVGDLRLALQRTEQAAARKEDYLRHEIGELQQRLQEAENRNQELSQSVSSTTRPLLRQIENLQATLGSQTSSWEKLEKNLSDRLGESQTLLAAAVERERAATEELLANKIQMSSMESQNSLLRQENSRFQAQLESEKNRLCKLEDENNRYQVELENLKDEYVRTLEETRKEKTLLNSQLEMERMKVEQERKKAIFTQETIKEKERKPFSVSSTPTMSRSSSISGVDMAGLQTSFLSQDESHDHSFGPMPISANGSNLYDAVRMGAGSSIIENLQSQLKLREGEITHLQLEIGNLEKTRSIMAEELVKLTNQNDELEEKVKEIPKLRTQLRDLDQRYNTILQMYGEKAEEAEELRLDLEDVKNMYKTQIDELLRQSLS
UniProt P56377: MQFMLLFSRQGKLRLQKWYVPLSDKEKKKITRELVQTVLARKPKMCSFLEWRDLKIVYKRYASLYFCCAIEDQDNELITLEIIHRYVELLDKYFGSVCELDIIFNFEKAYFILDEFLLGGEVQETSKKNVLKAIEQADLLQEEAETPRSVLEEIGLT

This is one part of the list. Small differences around the control level are noise.

Regarding “UniProt P55198 (peptide sequence: VVFSGFGPIMR, peptide start residue: 398)”, the log2 fold change was -0.0882.
Take “SNX16 (peptide sequence: TKFTGTASSIEYSTRPR, peptide start residue: 75) (UniProt P57768)”: the log2 fold change was -0.282.
In the case of “POLR2F (peptide sequence: ITTPYMTKYER, peptide start residue: 52) (UniProt P61218)” it was 0.746; in that of “UniProt P63000 (peptide sequence: HHCPNTPIILVGTK, peptide start residue: 103)”, 0.179.
Consider “UniProt P61927 (peptide sequence: RKYNWSAK, peptide start residue: 45)”, for which the log2 fold change stood at 0.31.
As to “UniProt P82970 (peptide sequence: KAAGQGDMR, peptide start residue: 5)”, the log2 fold change amounted to 0.441.
In the case of “PKNOX1 (peptide sequence: SWLFQHIGHPYPTEDEKK, peptide start residue: 276) (UniProt P55347)” it was -0.153; in that of “ANTXR2 (peptide sequence: LDALWALLR, peptide start residue: 452) (UniProt P58335)”, -0.0405.
As for “UniProt P63241 (peptide sequence: LPEGDLGKEIEQK, peptide start residue: 114)”, the log2 fold change is 0.288.
For the target “POLE2 (peptide sequence: IINAVEKQPLSSNMIER, peptide start residue: 48) (UniProt P56282)”, the log2 fold change is 0.169.
The same measure for “PEX3 (peptide sequence: HSLSLLDLEQK, peptide start residue: 198) (UniProt P56589)”: -0.261; for “UniProt P62987 (peptide sequence: YNCDKMICR, peptide start residue: 89)”: 0.17; for “SRP54 (peptide sequence: VDVASVIVTK, peptide start residue: 240) (UniProt P61011)”: 0.641.
In the case of “RWDD2B (peptide sequence: HCHGDVCILNATEWVR, peptide start residue: 144) (UniProt P57060)” it was -0.52; in that of “MRPS15 (peptide sequence: NTNYDVFEK, peptide start residue: 172) (UniProt P82914)”, -0.211.
Regarding “UniProt P63151 (peptide sequence: NAAQFLLSTNDKTIK, peptide start residue: 106)”, the log2 fold change came to 0.585.
For the target “SEC61B (peptide sequence: FYTEDSPGLK, peptide start residue: 58) (UniProt P60468)”, the log2 fold change is -0.405.
Turning to “UniProt P60709 (peptide sequence: GYSFTTTAEREIVR, peptide start residue: 197)”, the log2 fold change came out at 0.267.
As for “UniProt P62140 (peptide sequence: FLNRHDLDLICR, peptide start residue: 234)”, the log2 fold change came out at 0.437.
As for “EIF6 (peptide sequence: DSLIDSLT, peptide start residue: 238) (UniProt P56537)”, the log2 fold change was -0.124.
In the case of “UniProt P61024 (peptide sequence: THLMSESEWR, peptide start residue: 35)” it was 0.0914.
On to “SKP1 (peptide sequence: TFNIKNDFTEEEEAQVRK, peptide start residue: 138) (UniProt P63208)”, for which the log2 fold change is -0.244.
Turning to “MRPS6 (peptide sequence: AMQRPETAATLK, peptide start residue: 12) (UniProt P82932)”, the log2 fold change stood at 0.228.
Turning to “RPL10A (peptide sequence: FSVCVLGDQQHCDEAK, peptide start residue: 63) (UniProt P62906)”, the log2 fold change was -0.221.
For the target “UniProt P61088 (peptide sequence: ICLDILKDK, peptide start residue: 86)”, the log2 fold change is 0.265.
As for “PRAME (peptide sequence: FSPYLGQMINLRR, peptide start residue: 252) (UniProt P78395)”, the log2 fold change is 0.328.
In the case of “INHBE (peptide sequence: ITHPPPQAALTR, peptide start residue: 63) (UniProt P58166)” it was 0.883; in that of “UniProt P61129 (peptide sequence: FDLHHANAGTNVK, peptide start residue: 805)”, 0.791; in that of “NDUFA6 (peptide sequence: QATSTASTFVKPIFSR, peptide start residue: 8) (UniProt P56556)”, -0.146.
Take “UniProt P63146 (peptide sequence: VSAIVEQSWNDS, peptide start residue: 141)”: the log2 fold change was -0.25.
As for “ARPP19 (peptide sequence: YPHLGQKPGGSDFLR, peptide start residue: 36) (UniProt P56211)”, the log2 fold change is -0.0521.
Regarding “ARF3 (peptide sequence: ILMVGLDAAGK, peptide start residue: 20) (UniProt P61204)”, the log2 fold change came to 0.205.
As to “UniProt P62330 (peptide sequence: QDLPDAMKPHEIQEK, peptide start residue: 124)”, the log2 fold change was 0.443.
As to “UniProt P60510 (peptide sequence: YGSVTVWR, peptide start residue: 134)”, the log2 fold change came out at 0.234.
Turning to “TMF1 (peptide sequence: LGESQTLLAAAVER, peptide start residue: 800) (UniProt P82094)”, the log2 fold change is -0.444.
With “AP1S2 (peptide sequence: SVLEEIGLT, peptide start residue: 149) (UniProt P56377)”, the log2 fold change is -0.122.

Source of the values: the supplement of paper PMC12819154, “High-throughput peptide-centric local stability assay extends protein–ligand identification to membrane proteins, tissues and bacteria” (Nature Structural & Molecular Biology, 2025).
